Experimental data: PubChem BioAssay AID1259308 (NCATS, 2017)
Screen: 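Knock-downs that increase output of a recombinant reporter protein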 (primary screen). Cell system: human HEK293 embryonic kidney cells stably expressing firefly luciferase (HEK-CMV-Luc2-Hygro). Knock-down reagent: single siRNA against human genes, 0.8 pmol siRNA per well. Time to read-out: 72 h. Measurement: 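Reporter luminescence and viable-cell signal on separate replicate plates, given as percent of non-targeting control and median/MAD z-scores, plus per-cell luciferase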. Scale: total luciferase, z-score: higher = more reporter protein produced. Rule for the call: 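An siRNA counts as active if its total luciferase robust z-score exceeds 3; genes with two or more such siRNAs out of three were retested with fresh siRNAs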. Meaning of the calls: active = raised luciferase; inactive = no rise.
The whole screen tested about 59,000 reagents; below is an unselected part. In the full data, about 1,510 (2.6%) were called active. 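Calls use total luciferase alone and ignore viability, so some active siRNAs may act by altering cell number.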 Unmarked entries are inactive. Further read-outs or replicates are left out here.

Knock-down of CHCHD2P8 [SID160725962] gave: total luciferase, z-score 0.995.
For CHCHD2P8 [SID160734002], the entry reads total luciferase, z-score -1.97.
Silencing of CHCHD2P8 [SID160769963] gave: total luciferase, z-score -0.0103.
For CDHR1 [SID160754216], the entry reads total luciferase, z-score -0.304.
CDHR1 [SID160754217] gave total luciferase, z-score 1.32.
For CDHR1 [SID160754218], the entry reads total luciferase, z-score -0.935.
Depletion of SLC35E3 [SID160733607] gave: total luciferase, z-score -0.437.
SLC35E3 [SID160743732] gave total luciferase, z-score 1.19.
SLC35E3 [SID160743733] gave total luciferase, z-score -0.0817.
Depletion of PDC [SID160713964] gave: total luciferase, z-score 0.621.
With knock-down of PDC [SID160713965], the screen gave total luciferase, z-score -0.487.
After knock-down of PDC [SID160713967], the screen gave total luciferase, z-score 0.27.
Against SLC22A24 [SID160762834], the entry reads total luciferase, z-score -0.438.
After knock-down of SLC22A24 [SID160762835], the record shows total luciferase, z-score -1.77.
SLC22A24 [SID160762836] showed total luciferase, z-score -0.19.
TRIM41 [SID160753847] scored total luciferase, z-score -0.0905.
With knock-down of TRIM41 [SID160753848], the screen gave total luciferase, z-score 0.646.
TRIM41 [SID160753849] scored total luciferase, z-score 0.857.
Knock-down of TAFA5 [SID160737036] came out at: total luciferase, z-score -0.226.
TAFA5 [SID160737037] scored total luciferase, z-score 0.582.
TAFA5 [SID160737038] showed total luciferase, z-score -0.0991.
Depletion of ACOT9 [SID160736648] gave: total luciferase, z-score 0.154.
After knock-down of ACOT9 [SID160736649], the screen gave total luciferase, z-score -0.039.
ACOT9 [SID160736650] showed total luciferase, z-score 0.585.
Against OR56B4 [SID160760588] the deposit lists total luciferase, z-score -0.744.
Against OR56B4 [SID160760589], the values are total luciferase, z-score 0.527.
After knock-down of OR56B4 [SID160760590], the record shows total luciferase, z-score -0.992.
For STXBP6 [SID160739044] the deposit lists total luciferase, z-score -0.024.
STXBP6 [SID160739045] showed total luciferase, z-score 1.47.
STXBP6 [SID160739046] gave total luciferase, z-score 1.86.
Silencing of CLCA3P [SID160722655] gave: total luciferase, z-score -0.279.
Against CLCA3P [SID160722656] the deposit lists total luciferase, z-score 1.92.
Silencing of CLCA3P [SID160722657] gave: total luciferase, z-score 1.31.
With knock-down of GSX2 [SID160760466], the record shows total luciferase, z-score -0.618.
With knock-down of GSX2 [SID160760467] the results were total luciferase, z-score -0.248.
After knock-down of GSX2 [SID160760468] the results were total luciferase, z-score -2.05.
With knock-down of PAK2 [SID160713809], the screen gave total luciferase, z-score 0.264.
With knock-down of PAK2 [SID160713810], the record shows total luciferase, z-score -0.308.
After knock-down of PAK2 [SID160713811] the results were total luciferase, z-score -0.543.
NXT1 [SID160739086] gave total luciferase, z-score -2.51.
Silencing of NXT1 [SID160739087] came out at: total luciferase, z-score 1.17.
NXT1 [SID160739088] gave total luciferase, z-score 0.689.

2 of these entries, set out differently:
{"target": "CHCHD2P8", "PubChem SID": "SID160725962", "total luciferase, z-score": 0.995}
{"target": "CHCHD2P8", "PubChem SID": "SID160734002", "total luciferase, z-score": -1.97}
